The other results are listed elsewhere or left out.
How the values were obtained:
[1] = molecular target: Neu5Gc(a2-8)Neu5Gc(a2-6)Gal(b1-4)GlcNAc; assay: glycan array binding signal (z-score within array); higher = stronger binding; conditions: glycan notation: IUPAC condensed, linker removed
Summary of the method: (§1)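 Glycan array data came from 3228 arrays in the Consortium for Functional Glycomics database, and only arrays with an available protein sequence were kept. Glycan names were put into IUPAC-condensed notation, and columns mapping to the same glycan were averaged. The binding signal is a within-array Z-score, averaged across arrays of one protein sequence run at different concentrations or buffers and across linkers. A negative Z-score can be read as non-binding.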

[2] = molecular target: Neu5Gc(b2-6)Gal(b1-4)GlcNAc; assay: as above; conditions: glycan notation: IUPAC condensed, linker removed
Summary of the method: as §1

B1: PX14343E-bfa-545-24-545 (Bacteroides fragilis) (protein)
chain: LDRYPQEELSDGSFWKTPDDANKVVSDLYGYLSTWDQDNDINSDNATMGIKWAAGNVSKGIYDPADQGWSGDYANVRQCNLILSKIDEIPDYPEADKTKALGQVYFFRAYIYFNLIRSFGDVPYIDKPLDLKDMEGITRMPRAEVYEKIMADFDKAIAALPTEWGASDYGRVTKGAAMAMKARAALYYGNWDTAATEAKNVMDLGLYELYDKDNTGKYAELFWEKADGCDEFILVTQFNYPDKTHYLMGWECFPTKGWGGMNPTQSLVDAFEDSEGAPISKSKIYDPTDPFKNRDPRLEVDILHDGEEMYGVTIKVAPLASSGSTGINQHNDATETGYYGQKWLDPSLDPLSDGWNMGKDWVHIRYAEVLLTYAEAKNELQGLDPEAFDAVNQVRRRVGMPELQNTDPSKPTYCATQDDLRQRIRNEWRVEFCLEGGKRMWDIRRWGIAKDVLNAPFEGLKYKIVDNPNDPDKKVDGGKMCILYQGDPIILSGSRYSDNNYLFPVPQSEIDLNPALTQNPGY
glycan array binding signal (z-score) [1]: 0.649
glycan array binding signal (z-score) [2]: 0.11

Source: the supplement of paper PMC8728848
